Patent US20200179450A1
Results are given in words; binding and its absence hold for the method and conditions named. Some results given as binding are weak or reduced against the parent protein; the word gives no strength.

Chains of the proteins cited; added tags and fusions are not shown. Lines headed by an entry give the natural chain unless they say otherwise; changes in a name come on top. Residues count along the entry.
UniProt P06127, residues 25-372: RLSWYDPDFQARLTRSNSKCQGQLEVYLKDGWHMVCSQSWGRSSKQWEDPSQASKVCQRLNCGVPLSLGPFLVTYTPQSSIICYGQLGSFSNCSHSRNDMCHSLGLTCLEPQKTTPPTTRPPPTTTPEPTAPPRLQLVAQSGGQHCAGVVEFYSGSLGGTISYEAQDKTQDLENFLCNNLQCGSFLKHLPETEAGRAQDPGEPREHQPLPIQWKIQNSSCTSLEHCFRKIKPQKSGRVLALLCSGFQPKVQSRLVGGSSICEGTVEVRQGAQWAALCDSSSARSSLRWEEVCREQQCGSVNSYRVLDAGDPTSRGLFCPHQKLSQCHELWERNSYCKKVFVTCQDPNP
UniProt P10747: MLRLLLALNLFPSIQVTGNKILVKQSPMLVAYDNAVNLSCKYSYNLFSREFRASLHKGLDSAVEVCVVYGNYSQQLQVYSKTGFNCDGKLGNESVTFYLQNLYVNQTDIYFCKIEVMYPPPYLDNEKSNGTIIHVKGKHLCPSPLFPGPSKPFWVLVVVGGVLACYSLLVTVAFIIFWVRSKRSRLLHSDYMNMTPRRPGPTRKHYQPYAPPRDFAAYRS

Molecular target: CD5-Fc fusion protein (UniProt P06127)
Assay: flow cytometry; CAR-transduced Jurkat T cells stained with CD5-Fc, then anti-IgG Fc-PE

binding: binds
Substance: CD5-scFv-CAR (from UniProt P10747 153-220; P20963 52-164)
